The source of these data is publication PMC6991698.

Common to all, as to assay: EMSA
(A gel shift assay detects complexes by their altered migration in electrophoresis.)

The target of one data set is nucleolin (endogenous) (UniProt P13383). To be noted: RNA-EMSA, 1x buffer (from 10x): 50 mM KCl, 5% glycerol, 0.1% NP-40, 1 mM MgCl2, 1 mM DTT, 10 mM Tris-HCl pH 8.0, 0.5 mg/mL heparin, 0.5 mg/mL yeast tRNA, protein in an extract, label: biotin.
Data set [1] deals with T1, nucleolin Nuc1-309 del310-713 (UniProt P13383).
T1 sequence (looked up): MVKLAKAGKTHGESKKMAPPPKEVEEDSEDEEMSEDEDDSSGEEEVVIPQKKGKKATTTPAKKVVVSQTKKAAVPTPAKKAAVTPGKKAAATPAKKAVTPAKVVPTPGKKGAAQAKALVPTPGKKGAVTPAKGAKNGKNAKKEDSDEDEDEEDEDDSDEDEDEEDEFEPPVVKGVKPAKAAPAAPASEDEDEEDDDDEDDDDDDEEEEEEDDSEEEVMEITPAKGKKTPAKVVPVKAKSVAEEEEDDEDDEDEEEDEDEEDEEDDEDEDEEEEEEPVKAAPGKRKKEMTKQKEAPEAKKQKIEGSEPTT
To be noted: band not significantly enhanced over endogenous background; RNA-EMSA, 1x buffer (from 10x): 50 mM KCl, 5% glycerol, 0.1% NP-40, 1 mM MgCl2, 1 mM DTT, 10 mM Tris-HCl pH 8.0, 0.5 mg/mL heparin, 0.5 mg/mL yeast tRNA; protein in a lysate after overexpression; residues 1-309; label: biotin.

The next data set addresses nucleolin (pcDNA3.1-Nuc) (UniProt P13383). The settings on record: RNA-EMSA, 1x buffer (from 10x): 50 mM KCl, 5% glycerol, 0.1% NP-40, 1 mM MgCl2, 1 mM DTT, 10 mM Tris-HCl pH 8.0, 0.5 mg/mL heparin, 0.5 mg/mL yeast tRNA, protein in a lysate after overexpression, residues 1-713, label: biotin.
The mark [2] stands for this setting: Ang II-treated cells, control plasmid, nuclear extract, stronger than untreated.
Setting [3] is: normal VSMC cytoplasmic extract, anti-nucleolin supershift, 100-fold unlabelled probe abolishes band.
[4] abbreviates: Ang II-treated cells, nuclear extract, stronger than untreated and than control plasmid.
The mark [5] stands for this setting: band significantly enhanced over normal extract.

Results from cells or extracts need not show a direct contact. For some of these results: A negative result means that nothing was seen under these conditions. For some of these results: At least one verdict rests on a figure or table, not on a statement of the authors. For some of these results: Protein sequences can lack the tags named with them. For some of these results: Construct, isoform or probe ends are uncertain for at least one entry.

Regarding “GGGGCCGGGGGCGGCGGCGCCCGGGGGCCAUGCGGGUGAGCC / GGCUCACCCGCAUGGCCCCCGGGCGCCGCCGCCCCCGGCCCC [EGF 5' UTR probe (42 bp)]”, the binding result with nucleolin (endogenous) (setting [2]) was “binds”; in the data set with nucleolin (endogenous) (setting [3]), “binds”; in data set [1] it was “no binding”; with nucleolin (pcDNA3.1-Nuc) (setting [4]), “binds”; with nucleolin (pcDNA3.1-Nuc) (setting [5]), “binds”.

With “UUUAGCCCCAUCCCUCAUUCCCGGUGGGGUUUGGAACUUUCC / GGAAAGUUCCAAACCCCACCGGGAAUGAGGGAUGGGGCUAAA [PDGF-BB 5' UTR probe (42 bp)]”, the binding result with nucleolin (endogenous) (setting [2]) is “binds”; with nucleolin (endogenous) (setting [3]), “binds”; in data set [1], “no binding”; in the data set with nucleolin (pcDNA3.1-Nuc) (setting [4]), “binds”; in the data set with nucleolin (pcDNA3.1-Nuc) (setting [5]), “binds”.
